Hit rate of the full screen: of about 140,000 compounds, about 4,300 (3.1%) were called active. This list was built around the results that the source calls inconclusive (neither active nor inactive); the mix of calls is not that of the screen.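 Rule for the calls: active = readout at or below -70, meaning at least 70% loss of cells showing the perinucleolar compartment, a nuclear body marking cancer cells; inconclusive = readout between -30 and a set limit; inactive = the rest.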
Assay: High Content Assay for Compounds that inhibit the Assembly of the Perinucleolar Compartment;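 note: plate controls were DMSO wells for no effect and camptothecin positive control wells for full effect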
Details: PC3M PTB-GFP, PNC prevalence imaging, 16 h; at 10 µM; stronger effect = lower value
Summary of the method: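 PC3M cells stably expressing PTB-GFP, 750–1000 cells/well, treated 16 h at 37 °C with compound (23 nl of library stock), in duplicate. After paraformaldehyde fixation and Hoechst stain, imaged at 20x; PNC prevalence scored by image analysis.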
With O=C(Nc1ccccn1)NC1CCCCC1 the activity change (PNC), negative = inhibition was inconclusive: -44.9%.
With O=[N+]([O-])c1ccc(-c2cc(-c3ccc(Cl)cc3)n[nH]2)cc1 the activity change (PNC), negative = inhibition was inactive: -0.366%.
For O=C(NCCO)c1ccc2c(c1)S(=O)(=O)c1ccccc1C2=O, the activity change (PNC), negative = inhibition was inactive: 31.9%.
With COc1ccc(C(=O)CSc2nnc(-c3ccc(C)cc3)o2)cc1 the activity change (PNC), negative = inhibition was inactive: 4.73%.
With Cn1nc(C(F)(F)F)c(/C=N/OC(=O)c2ccccc2)c1SCc1ccccc1Cl the activity change (PNC), negative = inhibition was inconclusive: -30.9%.
With O=C(Nc1nccs1)c1ccc(COc2ccc(Cl)cc2)o1 the activity change (PNC), negative = inhibition was inactive: -1.98%.
For Cc1ccc(NC(=S)NCCc2ccc(F)cc2)c(C)c1, the activity change (PNC), negative = inhibition was inconclusive: -60.6%.
In the case of Cc1ccc(C2=N/C(=C\c3ccc(OS(=O)(=O)c4ccc(C)cc4)cc3)C(=O)O2)cc1, the activity change (PNC), negative = inhibition is reported as inconclusive: -30.8%.
For COC(=O)C1=C(C)NC(=O)NC1c1ccsc1 (centres undefined), the activity change (PNC), negative = inhibition was inconclusive: -30.2%.
For COc1cc(Nc2ccccc2Cl)c([N+](=O)[O-])nc1[N+](=O)[O-], the activity change (PNC), negative = inhibition was active: -92.3%.
In the case of COc1ccc(-c2noc(CCC(=O)Nc3cccnc3)n2)cc1OC, the activity change (PNC), negative = inhibition is reported as active: -100%.
For Cc1ccc(-c2cc(NC(=O)CCl)n(-c3ccccc3)n2)cc1, the activity change (PNC), negative = inhibition was inconclusive: -33.1%.
In the case of Cc1ccccc1Cc1c(C)nc2c(C(=O)NCc3ccco3)cnn2c1C, the activity change (PNC), negative = inhibition is reported as inconclusive: -49.5%.
With CC(C)=NOc1nc(N(C)C)nc(N(C)C)n1 the activity change (PNC), negative = inhibition was inactive: 2.96%.
With COc1cc(C(=S)N2CCCC2)cc(OC)c1O the activity change (PNC), negative = inhibition was inconclusive: -36.2%.
In the case of CCN1CCS/C1=C/C=C/C1=[N+](CC)CCS1, the activity change (PNC), negative = inhibition is reported as inactive: -21.3%.
For CCN(CC)C(=O)CSc1nnc(NC(=O)CCc2ccccc2)s1, the activity change (PNC), negative = inhibition was inconclusive: -45%.
With CCCc1cc(C(=O)Nc2cccnc2)no1 the activity change (PNC), negative = inhibition was active: -106%.
In the case of CCCCNC(=O)c1onc(CSc2ccccc2F)c1C(=O)O, the activity change (PNC), negative = inhibition is reported as inactive: 16%.
In the case of CCOC(=O)c1c(C)[nH]c(C(=O)CSc2ccc(Cl)cc2)c1C, the activity change (PNC), negative = inhibition is reported as inactive: -17.3%.
In the case of CC(=O)N1CCN(C2=NC(=O)C(=C3CCCCC3)S2)CC1, the activity change (PNC), negative = inhibition is reported as active: -100%.
In the case of Cc1nc(SCC(=O)Nc2ccccc2)c2oc3ccccc3c2n1, the activity change (PNC), negative = inhibition is reported as inconclusive: -35.6%.
For O=C(O)CCN1C(=O)c2ccccc2C1=O, the activity change (PNC), negative = inhibition was inconclusive: -34.6%.
With N#CC(C(=O)NC1CCCCC1)=C1CCCCC1 the activity change (PNC), negative = inhibition was inconclusive: -55.8%.
For COc1ccc(S(=O)(=O)N2CCc3ccccc3C2)cc1OC, the activity change (PNC), negative = inhibition was inactive: -15.1%.
With O=C(NCc1ccc(Cl)cc1)c1ccc(OCC2CCCO2)cc1 (centres undefined) the activity change (PNC), negative = inhibition was inconclusive: -31.1%.
With Cc1cccc(NC(=S)NNC(=O)c2ccccc2Br)c1 the activity change (PNC), negative = inhibition was inactive: -5.13%.
For CC1Cc2ccccc2N1C(=O)CSc1nnc(-c2ccccc2)c(-c2ccccc2)n1 (centres undefined), the activity change (PNC), negative = inhibition was inactive: 73.2%.
In the case of Cc1ccc(-n2nnnc2SCn2nnc3ccccc3c2=O)cc1, the activity change (PNC), negative = inhibition is reported as inconclusive: -47.7%.
With COc1ccc(C2C(C(=O)Nc3ccc(F)cc3)=C(C)Nc3nc(CCCO)nn32)cc1 (centres undefined) the activity change (PNC), negative = inhibition was inconclusive: -36.5%.
With CCN(CCCNC(=O)c1c(C)cc(=O)oc1C)c1ccccc1 the activity change (PNC), negative = inhibition was inconclusive: -52.3%.
For CCOC(=O)C1CCN(C(c2cccc(OC)c2)c2sc3nc(C)nn3c2O)CC1 (centres undefined), the activity change (PNC), negative = inhibition was inconclusive: -43.1%.
In the case of CCN(CC)C(=O)CSc1nc2ncc(Br)cc2[nH]1, the activity change (PNC), negative = inhibition is reported as inconclusive: -32%.
For Cc1[nH]nc(N=CC2=C(O)CC(C)(C)CC2=O)c1-c1ccc(Cl)cc1, the activity change (PNC), negative = inhibition was inactive: -13.9%.
For O=C(c1cnn2c(C(F)F)cc(-c3ccccc3)nc12)N1CCCc2ccccc21, the activity change (PNC), negative = inhibition was inconclusive: -42.4%.
With COc1ccccc1NCCC(=O)OCC(=O)NC1CCCCCC1 the activity change (PNC), negative = inhibition was inconclusive: -33%.
For O=C(COC(=O)c1cccs1)c1ccc2c(c1)OCCO2, the activity change (PNC), negative = inhibition was inactive: -19.4%.
For CCn1c(SC)nc2c(c1=O)SC(C)C2 (centres undefined), the activity change (PNC), negative = inhibition was inconclusive: -34.3%.
In the case of COc1ccc(C)cc1NC(=O)C(Sc1nnc(-c2cccs2)o1)c1ccccc1 (centres undefined), the activity change (PNC), negative = inhibition is reported as inactive: -2.04%.
With O=C(O)CCc1ccc(-c2ccc(F)cc2)n1NC(=O)c1ccco1 the activity change (PNC), negative = inhibition was inconclusive: -42%.
With CCCCCCC(=O)c1c(C)[nH]c(C(=O)OCC)c1C the activity change (PNC), negative = inhibition was inactive: -27.5%.
In the case of O=C(CN1CCN(CC(=O)Nc2ccccc2C(F)(F)F)CC1)Nc1ccccc1F, the activity change (PNC), negative = inhibition is reported as inconclusive: -54.4%.
With COC(=O)C1=CNC=C(C(=O)OC)C1c1ccccc1Cl the activity change (PNC), negative = inhibition was inconclusive: -38%.
For Cc1c(Cl)cccc1NC(=O)CC1SCCNC1=O (centres undefined), the activity change (PNC), negative = inhibition was inactive: -9.7%.
In the case of COC(=O)c1ccc2c(c1)NC(=O)C(N1CCCC1)S2 (centres undefined), the activity change (PNC), negative = inhibition is reported as inactive: -20.8%.
For O=C(CSc1nnc(-c2ccncc2)o1)Nc1ccccc1Cl, the activity change (PNC), negative = inhibition was active: -90.2%.
In the case of Cc1cccc(/C(N)=N/OC(=O)CCCN2C(=O)c3ccccc3C2=O)c1, the activity change (PNC), negative = inhibition is reported as inactive: 19.1%.
In the case of CN(C)c1nc(N)nc(CSc2nnnn2-c2ccc(F)cc2)n1, the activity change (PNC), negative = inhibition is reported as inconclusive: -34.8%.
For CS(=O)(=O)c1cccc(C(=O)Oc2ccccc2)c1, the activity change (PNC), negative = inhibition was inconclusive: -52%.
For CC1CCCC(NC(=O)Cn2cc3c(n2)CCCCC3)C1C (centres undefined), the activity change (PNC), negative = inhibition was inconclusive: -52.3%.
With CN(C)/C=N/c1cc(=O)[nH]c(=O)n1C the activity change (PNC), negative = inhibition was inactive: 42.1%.
With COC(=O)C1=C(C)NC(=O)NC1c1cc(Cl)ccc1OC (centres undefined) the activity change (PNC), negative = inhibition was inconclusive: -53%.
With CC(/C=N/NC(=O)c1ccncc1)=C\c1ccc(C(C)C)cc1 the activity change (PNC), negative = inhibition was inconclusive: -43.4%.
With Cc1ccc(/C=N/NC(=O)c2ccccn2)s1 the activity change (PNC), negative = inhibition was inconclusive: -44.6%.
For COC(=O)C1=C(C)NC(C)=C(C(=O)OC)C1C1CC=CCC1 (centres undefined), the activity change (PNC), negative = inhibition was active: -104%.
With Clc1ccc(OCc2nnc(SCCN3CCCCC3)n2Cc2ccco2)cc1 the activity change (PNC), negative = inhibition was inconclusive: -36.3%.
In the case of COc1cccc(/C=N/n2c(N)c(S(=O)(=O)c3cccs3)c3nc4ccccc4nc32)c1OC, the activity change (PNC), negative = inhibition is reported as inconclusive: -30.8%.
In the case of CC1CCN(c2ccc(C(=O)Nc3nnc(C4CC4)s3)cc2[N+](=O)[O-])CC1, the activity change (PNC), negative = inhibition is reported as active: -87.1%.
In the case of Cc1nn(Cc2ccc(F)cc2)c(C)c1NC(=O)c1nn(C)cc1Cl, the activity change (PNC), negative = inhibition is reported as inconclusive: -43.6%.
For O=C(Cn1nnc(-c2ccccc2-n2cnnn2)n1)N1CCCCC1, the activity change (PNC), negative = inhibition was inactive: 14.3%.
For O=S(=O)(NCCc1ccccc1)c1ccc(S(=O)(=O)N2CCCCC2)cc1, the activity change (PNC), negative = inhibition was inconclusive: -31.8%.
For CCN1C(=O)/C(=C/c2nc3ccccc3c(=O)n2-c2ccccc2)c2ccccc21, the activity change (PNC), negative = inhibition was inconclusive: -38.4%.
In the case of COc1ccc(OCCSc2ncccn2)cc1, the activity change (PNC), negative = inhibition is reported as inconclusive: -39.2%.
With Cc1cccc(OCCC(=O)Nc2ccc(S(=O)(=O)N3CCCC3)cc2)c1 the activity change (PNC), negative = inhibition was inactive: 11.3%.
In the case of CCCCc1c(O)nc(SCC(=O)N2CCOCC2)[nH]c1=O, the activity change (PNC), negative = inhibition is reported as inconclusive: -56.3%.
In the case of CCSC1(SCC)N=C(N)C2(C#N)C(c3ccc(OC)c(OC)c3OC)C12C#N (centres undefined), the activity change (PNC), negative = inhibition is reported as inconclusive: -50.8%.
With O=C(O)c1cc(S(=O)(=O)NCc2ccco2)c(Cl)cc1Cl the activity change (PNC), negative = inhibition was inactive: -3.23%.
With CCN(CC)Cc1c(O)ccc2c([N+](=O)[O-])c(C)n(-c3ccc(OC)cc3)c12 the activity change (PNC), negative = inhibition was inactive: 5.37%.
In the case of O=C(CN1C(=O)S/C(=C/c2cccs2)C1=O)N1CCOCC1, the activity change (PNC), negative = inhibition is reported as inactive: 5.75%.
For Cc1ccc(S(=O)(=O)N2CCCOC2CNC(=O)C(=O)NCc2cccnc2)cc1 (centres undefined), the activity change (PNC), negative = inhibition was inactive: 103%.
For Cc1cc2ccccc2c(=O)n1CC(=O)N(C)c1ccc(F)cc1, the activity change (PNC), negative = inhibition was inconclusive: -69.9%.
In the case of c1ccc(OCCCCN2CCOCC2)cc1, the activity change (PNC), negative = inhibition is reported as inactive: 73.5%.
With Cc1ccc(S(=O)(=O)Nc2ccccc2/C=N/c2nc3ccccc3n2C(C)C)cc1 the activity change (PNC), negative = inhibition was active: -92%.
With CCN(CC)c1ccc(C(=O)OCC(=O)c2ccco2)cc1 the activity change (PNC), negative = inhibition was inconclusive: -32.9%.
For Cc1ccc(S(=O)(=O)C2(C(=O)NC3CCCC3)CC2)cc1, the activity change (PNC), negative = inhibition was inactive: 24.1%.
With CCN=C1SC(CC(=O)Nc2ccccc2OCC)C(=O)N1CC (centres undefined) the activity change (PNC), negative = inhibition was inconclusive: -36.1%.
For COC(=O)Cc1ccc(NC(=S)NCc2ccc(F)cc2)cc1, the activity change (PNC), negative = inhibition was inconclusive: -57%.
For CCN(CC)C(=O)CN(C#N)c1nc(C)cc(C)n1, the activity change (PNC), negative = inhibition was inactive: -2.79%.
For O=C(O)CSc1nccn1-c1cccc(Cl)c1, the activity change (PNC), negative = inhibition was inconclusive: -39.6%.
For C#CCn1c(=NC(=O)c2cccs2)sc2cccc(OC)c21, the activity change (PNC), negative = inhibition was inconclusive: -55.1%.
For CCC(C)(C)n1nnnc1C(c1cccc(C#N)c1)N1CCN(c2cccc(C)c2C)CC1 (centres undefined), the activity change (PNC), negative = inhibition was inconclusive: -34.8%.
In the case of CN(C)C=Nc1ncc2c3ccccc3n(Cc3ccccc3)c2c1C#N, the activity change (PNC), negative = inhibition is reported as inactive: -2.38%.
In the case of O=C(O)c1cccc(S(=O)(=O)Nc2ccc(O)cc2Sc2nc3ccccc3s2)c1, the activity change (PNC), negative = inhibition is reported as inconclusive: -37.9%.
For O=C(NCC1CCCO1)/C(=C\c1ccco1)NC(=O)c1ccccc1 (centres undefined), the activity change (PNC), negative = inhibition was inconclusive: -43.5%.
With CC1CCCCN1CC(=O)NCc1ccc2c(c1)OCO2 (centres undefined) the activity change (PNC), negative = inhibition was inconclusive: -32.2%.
With Cc1ccc(N=C2NC(=O)CS2)cc1 the activity change (PNC), negative = inhibition was inconclusive: -42.3%.
For CCOc1ccc(NC(=O)C2CCN(c3nnnn3-c3ccccc3)CC2)cc1, the activity change (PNC), negative = inhibition was inconclusive: -71.7%.
With COC(=O)c1sc2ccccc2c1N the activity change (PNC), negative = inhibition was inconclusive: -51.8%.
For NC(=O)c1ccc(Br)c(S(=O)(=O)N2CCCCC2)c1, the activity change (PNC), negative = inhibition was inconclusive: -30.2%.
With O=S(=O)(NCCc1csc(-c2cccnc2)n1)c1cccs1 the activity change (PNC), negative = inhibition was inconclusive: -35.6%.
For O=S(=O)(c1ccc(Cl)c(NC(=S)N/N=C/c2c(F)cccc2F)c1)N1CCOCC1, the activity change (PNC), negative = inhibition was inactive: -13.7%.
With C=C1C(=O)[C@@]23[C@H](O)C[C@@H]4C(C)(C)CC[C@H](O)[C@@]4(C)[C@@H]2CC[C@@H]1[C@H]3O the activity change (PNC), negative = inhibition was inactive: -14.6%.
For CCn1nc(C)c(NC(=O)/C=C/c2cnn(C)c2)c1C, the activity change (PNC), negative = inhibition was inactive: -28.8%.
For COc1ccc2nc(N3CCC(C)CC3)c(C#N)cc2c1, the activity change (PNC), negative = inhibition was inactive: 15.6%.

Reference: PubChem BioAssay AID2417 (National Center for Advancing Translational Sciences (NCATS), 2010)
